Source: patent publication US10111880B2, “Compounds for the treatment of diabetes and disease complications arising from same” (BEN-GURION UNIVERSITY OF THE NEGEV RESEARCH AND DEVELOPMENT …, priority 2013, dated 2018)
Some results were stated once for a whole list of compounds, not compound by compound.

Tested on: STZ-induced diabetic ICR mice
Assay: Blood glucose in STZ-induced diabetic ICR mice, long-term AGS treatment (5 months) with or without insulin
Assay type: in vivo, mouse
Conditions: combined with insulin (4 U/Kg every 2 days); FIG. 2D, 2E
Method: [0182]7 week-old female ICR mice were intra-peritoneally injected with STZ (40 mg\Kg) for 5 consecutive days. Non-diabetic mice received citrate buffer (pH 4.3, cold), which served as the vehicle controls for this study. AGS-500 (6 mg\Kg) was then administered subcutaneously every 2 days, for 5 months, on the first day after STZ administration. A further control group, where DMSO was administered in accordance with this regimen, was included. Mice were divided into the following 6 groups (10 mice per group except STZ only-5 mice): • STZ only • STZ+DMSO • Citrate+DMSO 1% every day • STZ+AGS-499 (6 mg/kg) injected every day S.C • STZ+AGS-500 (6 mg/kg) injected every day S.C • STZ+AGS-500 (6 mg/kg) injected every other day S.C Mice were weighed and blood glucose levels were measured using a free style glucometer. Food consumption was also measured 24 hours prior to STZ injection. The concentration of STZ to be injected was calculated. STZ at 40 mg/kg was injected ip for 5 consecutive days. AGS treatment was administered one day following the last STZ injection. […] Blood glucose levels over 200 mg/dl (measured 3 consecutive times) indicated a diabetic state. […] Blood glucose levels were monitored every 3 days. […]

Structure (SMILES): CCOCc1cc(C(C)(c2cc(COCC)c(O)c(COCC)c2)c2cc(COCC)c(O)c(COCC)c2)cc(COCC)c1O [AGS-499, 1,1,1,1-tris (4-hydroxy-3,5-methylene ethoxy-phenyl)-ethane]
- reduction of blood glucose levels over time as compared to insulin treatment alone: more than 20%

Structure (SMILES): CC(c1cc(Br)c(O)c(Br)c1)(c1cc(Br)c(O)c(Br)c1)c1cc(Br)c(O)c(Br)c1 [AGS-500, 1,1,1-tris (4-hydroxy-3,5-dibromo-phenyl)-ethane]
- reduction of blood glucose levels over time as compared to insulin treatment alone: more than 20%
